Assay results taken from PubChem BioAssay AID248 (DTP/NCI, 2004).
The list is a part of this screen's results and no random one: it is rich in T/C values a quarter to a half above the control, in often repeated tests (any T/C) and in doses without a T/C. Further doses and runs are listed elsewhere. T/C: endpoint of the treated group in % of that of the vehicle group. Some entries give survivors of the animals treated and no T/C: the source files T/C as zero there, which appears to mark a toxic dose or a test without result, not a measured value. Some survivor counts are full or nearly so, which does not show that the dose was tolerated: survival well below the control is almost never listed, so the zero probably covers shortened survival too. Survivors were counted at the toxicity check, usually on the fifth day, unless a day is given; later deaths do not show. Schedules are NCI's codes, read here as Q, the interval in days (D) or hours (H), X, the number of doses. Some structures stand for samples that the source files as different forms (salt, stereo form or complex); doses refer to the form tested. Where survival is the endpoint, this PubChem deposit counts one and a half times the control or more as active, and values a quarter to a half above the control carry no call in these data; other NCI protocols may use other cut-offs. Some T/C values are followed by the survivors on the day toxicity was checked, most often the fifth; without a count, all were alive then.

Test system: L1210 leukemia ip in BDF1 mice, survival T/C
Assay: NCI In Vivo Anticancer Drug Screen. Data for tumor model L1210 Leukemia (intraperitoneal) in B6D2F1 (BDF1) mice
Details: T/C endpoint: mean survival time, higher T/C = longer survival
[1] = dose: 100.0 mg/kg/injection, schedule: Q04DX003 (ip), vehicle: Klucel (hydroxypropylcellulose) (HPC)
[2] = dose: 100.0 mg/kg/injection, schedule: Q01DX009 (ip), vehicle: saline with Tween-80
[3] = dose: 200.0 mg/kg/injection, schedule: Q01DX009 (ip), vehicle: saline with Tween-80
[4] = dose: 100.0 mg/kg/injection, schedule: Q01DX009 (ip), vehicle: saline
[5] = dose: 200.0 mg/kg/injection, schedule: Q01DX009 (ip), vehicle: saline
[6] = dose: 400.0 mg/kg/injection, schedule: Q04DX003 (ip), vehicle: saline
[7] = dose: 200.0 mg/kg/injection, schedule: Q04DX003 (ip), vehicle: saline with Tween-80
[8] = dose: 400.0 mg/kg/injection, schedule: Q04DX003 (ip), vehicle: saline with Tween-80
[9] = dose: 400.0 mg/kg/injection, schedule: Q01DX001 (ip), vehicle: saline
[10] = dose: 100.0 mg/kg/injection, schedule: Q04DX003 (ip), vehicle: saline
[11] = dose: 200.0 mg/kg/injection, schedule: Q04DX003 (ip), vehicle: saline
[12] = dose: 400.0 mg/kg/injection, schedule: Q01DX001 (ip), vehicle: saline with Tween-80
[13] = dose: 200.0 mg/kg/injection, schedule: Q04DX002 (ip), vehicle: Klucel (hydroxypropylcellulose) (HPC)

Question: Which survivor count [1] does the source give for NC(N)=Nc1nc2ccccc2s1 here?
Answer: 4 of 6

Question: Which survivor count [2] does the source give for O=C(O)c1ccc(N=Nc2ncc[nH]2)cc1 here?
Answer: 0 of 3

Question: And the survivor count [3]?
Answer: 1 of 3

Question: Which results are given for CCC(C)C(CCN1CCCCC1)(CNC(=O)CN(CC)CC)c1cccc2ccccc12 (stereo not drawn)?
Answer: survivor count (dose: 50.0 mg/kg/injection, schedule: Q01DX009 (ip), vehicle: saline): 6 of 6; survivor count [4]: 6 of 6; survivor count [5]: 0 of 6; survivor count [6]: 0 of 6

Question: Which results are given for CCOP(=S)(OCC)SC(C)(C)C?
Answer: survivor count [7]: 5 of 6; survivor count [8]: 0 of 6

Question: Which results are given for CC(=O)Nc1ccc(/C=C/c2ccc3ccccc3[n+]2C)cc1?
Answer: survivor count [2]: 0 of 6; survivor count [1]: 4 of 6; survivor count (dose: 200.0 mg/kg/injection, schedule: Q04DX003 (ip), vehicle: Klucel (hydroxypropylcellulose) (HPC)): 0 of 6; survivor count (dose: 400.0 mg/kg/injection, schedule: Q04DX003 (ip), vehicle: Klucel (hydroxypropylcellulose) (HPC)): 0 of 6

Question: What does the source list for OCC1OC(n2cnc3cncnc32)C(O)C1O (stereo not drawn)?
Answer: survivor count (dose: 40.0 mg/kg/injection, schedule: Q01DX015 (ip), vehicle: saline): 3 of 6; survivor count (dose: 80.0 mg/kg/injection, schedule: Q01DX015 (ip), vehicle: saline): 0 of 6; T/C (dose: 100.0 mg/kg/injection, schedule: Q01DX001 (ip), vehicle: saline): 127 % of control; survivor count (dose: 160.0 mg/kg/injection, schedule: Q01DX015 (ip), vehicle: saline): 0 of 6; survivor count (dose: 200.0 mg/kg/injection, schedule: Q01DX001 (ip), vehicle: saline): 0 of 4; survivor count (dose: 320.0 mg/kg/injection, schedule: Q01DX015 (ip), vehicle: saline): 0 of 6; survivor count [9]: 0 of 4

Question: With ClC(Cl)(Cl)c1cccc(C(Cl)(Cl)Cl)c1 as the molecule, how does the survivor count (dose: 400.0 mg/kg/injection, schedule: Q01DX009 (ip), vehicle: Klucel (hydroxypropylcellulose) (HPC)) read?
Answer: 6 of 6

Question: For CCCCOC(=O)CC1CCCN1C (stereo not drawn), which survivor count [6] is on record?
Answer: 1 of 6

Question: For O=C(O)/C(S)=C\c1ccc(Cl)cc1, which survivor count [9] is on record?
Answer: 2 of 4

Question: CN(C)c1ccc(/C=C2\C=Cc3ccccc32)cc1Br was tested. Which survivor count [7] did it give?
Answer: 2 of 6

Question: What about the survivor count [8] of the same molecule?
Answer: 1 of 6

Question: Which results are given for N#CSCN1C(=O)C2CC=CCC2C1=O (stereo not drawn)?
Answer: survivor count (dose: 50.0 mg/kg/injection, schedule: Q04DX003 (ip), vehicle: saline with Tween-80): 2 of 6; survivor count (dose: 100.0 mg/kg/injection, schedule: Q04DX003 (ip), vehicle: saline with Tween-80): 0 of 6

Question: With Nc1ccnc2cc(Cl)ccc12 as the molecule, how does the survivor count (dose: 300.0 mg/kg/injection, schedule: Q01DX001 (ip), vehicle: other) read?
Answer: 0 of 6

Question: How did the survivor count (dose: 25.0 mg/kg/injection, schedule: Q01DX009 (ip), vehicle: Klucel (hydroxypropylcellulose) (HPC)) turn out when CC(=O)C1=CC(=O)NC(=O)C1C(=O)CC(C)C (stereo not drawn) was run?
Answer: 0 of 6

Question: What about the survivor count (dose: 50.0 mg/kg/injection, schedule: Q04DX003 (ip), vehicle: Klucel (hydroxypropylcellulose) (HPC)) of the same molecule?
Answer: 0 of 6

Question: How did the survivor count [3] turn out when CC(C)(CCl)COS(=O)(=O)c1ccc(Br)cc1 was run?
Answer: 2 of 3

Question: With CCCCN1CCCC(O)C1 (stereo not drawn) as the molecule, how does the survivor count [6] read?
Answer: 0 of 6

Question: Which survivor count [9] does the source give for CCCCCCCCOC(=O)c1[nH]cnc1N here?
Answer: 0 of 4

Question: How did the survivor count [4] turn out when CC(C(=O)N1c2ccccc2Sc2ccccc21)[N+]1(C)CCCC1 (stereo not drawn) was run?
Answer: 0 of 6

Question: And the survivor count [10]?
Answer: 0 of 4

Question: And the survivor count [5]?
Answer: 0 of 6

Question: What about the survivor count [11] of the same molecule?
Answer: 0 of 4

Question: What about the survivor count (dose: 400.0 mg/kg/injection, schedule: Q01DX009 (ip), vehicle: saline) of the same molecule?
Answer: 0 of 6

Question: What about the survivor count [6] of the same molecule?
Answer: 0 of 4

Question: Which results are given for C[n+]1cccc2cc(Br)ccc21?
Answer: survivor count (dose: 80.0 mg/kg/injection, schedule: Q01DX001 (ip), vehicle: other): 0 of 6; survivor count (dose: 100.0 mg/kg/injection, schedule: Q01DX001 (ip), vehicle: other): 4 of 4; survivor count (dose: 200.0 mg/kg/injection, schedule: Q01DX001 (ip), vehicle: other): 0 of 4; survivor count (dose: 400.0 mg/kg/injection, schedule: Q01DX001 (ip), vehicle: other): 0 of 4

Question: For N#CCCCN1CCCCC1, which survivor count [10] is on record?
Answer: 2 of 6

Question: What about the survivor count [11] of the same molecule?
Answer: 0 of 6

Question: What about the survivor count [6] of the same molecule?
Answer: 0 of 6

Question: What does the source list for CN1C2CCCC1CC(=O)NC2 (stereo not drawn)?
Answer: survivor count (dose: 60.0 mg/kg/injection, schedule: Q01DX001 (ip), vehicle: saline): 0 of 6; survivor count (dose: 75.0 mg/kg/injection, schedule: Q01DX001 (ip), vehicle: saline): 2 of 6; survivor count (dose: 150.0 mg/kg/injection, schedule: Q01DX001 (ip), vehicle: saline): 0 of 6; survivor count (dose: 300.0 mg/kg/injection, schedule: Q01DX001 (ip), vehicle: saline): 0 of 6

Question: How did the survivor count [9] turn out when C=CCOc1cc[n+]([O-])cc1 was run?
Answer: 0 of 6

Question: How did the survivor count [12] turn out when Cc1[nH]cnc1C(c1ccccc1)c1ccccc1 was run?
Answer: 0 of 6

Question: For O=C1NC(=O)C2C3OC(C(Cl)C3Cl)C12 (stereo not drawn), which survivor count (dose: 100.0 mg/kg/injection, schedule: Q04DX002 (ip), vehicle: Klucel (hydroxypropylcellulose) (HPC)) is on record?
Answer: 1 of 3

Question: What about the survivor count (dose: 150.0 mg/kg/injection, schedule: Q01DX009 (ip), vehicle: carboxymethylcellulose (CMC)) of the same molecule?
Answer: 1 of 6

Question: And the survivor count [13]?
Answer: 0 of 3

Question: And the survivor count (dose: 300.0 mg/kg/injection, schedule: Q01DX009 (ip), vehicle: carboxymethylcellulose (CMC))?
Answer: 0 of 6

Question: And the survivor count (dose: 400.0 mg/kg/injection, schedule: Q04DX002 (ip), vehicle: Klucel (hydroxypropylcellulose) (HPC))?
Answer: 0 of 3

Question: With CCCCCCCC(=N)OCC as the molecule, how does the survivor count [3] read?
Answer: 2 of 6

Question: And the survivor count [12]?
Answer: 0 of 6

Question: OC12c3ccccc3C(O)(c3ccccc31)C1c3ccccc3C2c2ccccc21 was tested. Which survivor count [13] did it give?
Answer: 3 of 3

Question: Which survivor count [11] does the source give for O=C(COc1ccc(Cl)c(Cl)c1)NCc1ccc[n+](Cc2ccc(Cl)c(S(=O)(=O)F)c2)c1 here?
Answer: 1 of 6

Question: What about the survivor count [6] of the same molecule?
Answer: 2 of 6

Question: What does the source list for Cc1c2oc3c(C)ccc(C(=O)NC4C(=O)NC(C(C)C)C(=O)N5CCCC5C(=O)N(C)CC(=O)N(C)C(C(C)C)C(=O)OC4C)c3nc-2c(C(=O)NC2C(=O)NC(C(C)C)C(=O)N3CCCC3C(=O)N(C)CC(=O)N(C)C(C(C)C)C(=O)OC2C)c(NCCCO)c1=O (stereo not drawn)?
Answer: T/C (dose: 0.2 mg/kg/injection, schedule: Q01DX009 (ip), vehicle: saline + alcohol): 129 % of control [7 of 8 alive]; T/C (dose: 0.4 mg/kg/injection, schedule: Q01DX009 (ip), vehicle: saline + alcohol): 137 % of control; T/C (dose: 1.2 mg/kg/injection, schedule: Q04DX003 (ip), vehicle: saline + alcohol): 134 % of control; T/C (dose: 2.4 mg/kg/injection, schedule: Q04DX003 (ip), vehicle: saline + alcohol): 128 % of control; T/C (dose: 2.5 mg/kg/injection, schedule: Q04DX003 (ip), vehicle: saline + alcohol): 135 % of control; T/C (dose: 6.4 mg/kg/injection, schedule: Q01DX001 (ip), vehicle: saline + alcohol): 142 % of control; T/C (dose: 8.0 mg/kg/injection, schedule: Q01DX001 (ip), vehicle: saline + alcohol): 143 % of control; T/C (dose: 10.0 mg/kg/injection, schedule: Q04DX003 (ip), vehicle: saline + alcohol): 140 % of control; survivor count (dose: 16.0 mg/kg/injection, schedule: Q01DX001 (ip), vehicle: saline + alcohol): 2 of 8; T/C (dose: 25.0 micrograms/kg/injection, schedule: Q01DX009 (ip), vehicle: saline + alcohol): 127 % of control; T/C (dose: 50.0 micrograms/kg/injection, schedule: Q01DX009 (ip), vehicle: saline + alcohol): 138 % of control; T/C (dose: 100.0 micrograms/kg/injection, schedule: Q01DX009 (ip), vehicle: saline + alcohol): 145 % of control; T/C (dose: 200.0 micrograms/kg/injection, schedule: Q01DX009 (ip), vehicle: saline + alcohol): 134 % of control

Question: C/C=C/C[P+](c1ccccc1)(c1ccccc1)c1cccc2ccccc12 was tested. Which survivor count (dose: 50.0 mg/kg/injection, schedule: Q04DX002 (ip), vehicle: saline with Tween-80) did it give?
Answer: 3 of 3

Question: What about the survivor count (dose: 100.0 mg/kg/injection, schedule: Q04DX002 (ip), vehicle: saline with Tween-80) of the same molecule?
Answer: 0 of 3

Question: For C=CC[N+]1=C(C)C(C)(C)c2ccccc21, which survivor count [8] is on record?
Answer: 1 of 6
